# According to article PMC11858971:
# T1: PIL15-3xFlag (rice (Oryza sativa)) (UniProt Q0JNI9)
# T1 sequence: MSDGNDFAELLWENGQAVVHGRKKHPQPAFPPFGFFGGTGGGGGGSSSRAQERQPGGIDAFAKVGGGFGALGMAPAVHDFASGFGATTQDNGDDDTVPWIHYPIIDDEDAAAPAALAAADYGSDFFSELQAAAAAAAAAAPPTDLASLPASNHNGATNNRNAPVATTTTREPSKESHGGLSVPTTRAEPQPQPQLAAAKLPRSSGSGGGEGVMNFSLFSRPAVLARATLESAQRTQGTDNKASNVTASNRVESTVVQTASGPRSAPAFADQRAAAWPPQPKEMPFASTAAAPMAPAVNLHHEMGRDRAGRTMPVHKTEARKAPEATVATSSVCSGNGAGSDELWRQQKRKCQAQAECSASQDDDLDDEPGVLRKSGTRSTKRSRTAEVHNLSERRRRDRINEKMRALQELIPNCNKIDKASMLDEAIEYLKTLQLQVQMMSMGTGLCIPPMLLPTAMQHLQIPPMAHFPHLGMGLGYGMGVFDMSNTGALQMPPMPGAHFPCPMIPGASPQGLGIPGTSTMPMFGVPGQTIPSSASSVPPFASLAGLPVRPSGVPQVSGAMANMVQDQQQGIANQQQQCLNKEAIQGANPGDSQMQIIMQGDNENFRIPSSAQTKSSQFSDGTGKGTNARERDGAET
# T2: PIL15-cCFP (rice (Oryza sativa)) (UniProt Q0JNI9)
# T2 sequence: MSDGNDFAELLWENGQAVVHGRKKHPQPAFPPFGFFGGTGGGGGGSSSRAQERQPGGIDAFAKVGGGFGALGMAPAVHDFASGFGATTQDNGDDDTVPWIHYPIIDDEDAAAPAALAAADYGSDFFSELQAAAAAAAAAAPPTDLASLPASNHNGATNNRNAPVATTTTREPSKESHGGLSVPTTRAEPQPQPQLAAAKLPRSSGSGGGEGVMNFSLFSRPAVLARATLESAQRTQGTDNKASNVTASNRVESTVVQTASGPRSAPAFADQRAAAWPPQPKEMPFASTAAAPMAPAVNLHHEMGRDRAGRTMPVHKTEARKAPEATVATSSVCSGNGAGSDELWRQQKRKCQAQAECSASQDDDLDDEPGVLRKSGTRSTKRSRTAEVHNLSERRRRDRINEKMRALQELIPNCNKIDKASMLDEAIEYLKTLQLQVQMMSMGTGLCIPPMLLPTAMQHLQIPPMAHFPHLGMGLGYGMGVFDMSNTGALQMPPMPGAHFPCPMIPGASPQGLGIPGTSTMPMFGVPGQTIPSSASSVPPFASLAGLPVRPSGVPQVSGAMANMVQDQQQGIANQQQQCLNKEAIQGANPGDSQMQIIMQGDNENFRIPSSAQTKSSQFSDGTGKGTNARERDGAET
# Experiments:
# [1] = target: T1, PIL15-3xFlag (rice (Oryza sativa)); test: co-IP; 3xFlag and GFP fusions co-expressed in N. benthamiana leaves by co-infiltration (GV3101), leaves 2 days in the dark; immunoprecipitation with anti-Flag antibody, Western blot
# [2] = target: T2, PIL15-cCFP (rice (Oryza sativa)); test: split reporter; BiFC with nYFP and cCFP fusions co-expressed in N. benthamiana leaves by Agrobacterium GV3101; fluorescence seen 48 h after injection, H2B-RFP as nuclear marker
# [3] = target: pGBT9-AOS2 (Rhizoctonia solani); test: two-hybrid; pGAD424 fusions in AH109 mated with pGBT9 fusions in Y187; diploids on SD/-Leu-Trp, -His or -Leu-Trp-His with various concentrations of 3-AT
# [4] = target: pGBT9-WRKY36 (rice (Oryza sativa)) (UniProt Q6IEP5); test: as above
# [5] = target: pGBT9-WRKY53 (rice (Oryza sativa)); test: as above
# [6] = target: WRKY36–cCFP (rice (Oryza sativa)); test: split reporter; BiFC with nYFP and cCFP fusions co-expressed in N. benthamiana leaves by Agrobacterium GV3101; fluorescence seen 48 h after injection, H2B-RFP as nuclear marker
# [7] = target: WRKY53–cCFP (rice (Oryza sativa)); test: as above
molecule,measurement,setting,value
WRKY36–GFP (rice (Oryza sativa)),binding,[1],binds
AOS2-nYFP (Rhizoctonia solani),binding,[2],binds
"pGAD424-PIL15 (protein, UniProt Q0JNI9 1-637) MSDGNDFAELLWENGQAVVHGRKKHPQPAFPPFGFFGGTGGGGGGSSSRAQERQPGGIDAFAKVGGGFGALGMAPAVHDFASGFGATTQDNGDDDTVPWIHYPIIDDEDAAAPAALAAADYGSDFFSELQAAAAAAAAAAPPTDLASLPASNHNGATNNRNAPVATTTTREPSKESHGGLSVPTTRAEPQPQPQLAAAKLPRSSGSGGGEGVMNFSLFSRPAVLARATLESAQRTQGTDNKASNVTASNRVESTVVQTASGPRSAPAFADQRAAAWPPQPKEMPFASTAAAPMAPAVNLHHEMGRDRAGRTMPVHKTEARKAPEATVATSSVCSGNGAGSDELWRQQKRKCQAQAECSASQDDDLDDEPGVLRKSGTRSTKRSRTAEVHNLSERRRRDRINEKMRALQELIPNCNKIDKASMLDEAIEYLKTLQLQVQMMSMGTGLCIPPMLLPTAMQHLQIPPMAHFPHLGMGLGYGMGVFDMSNTGALQMPPMPGAHFPCPMIPGASPQGLGIPGTSTMPMFGVPGQTIPSSASSVPPFASLAGLPVRPSGVPQVSGAMANMVQDQQQGIANQQQQCLNKEAIQGANPGDSQMQIIMQGDNENFRIPSSAQTKSSQFSDGTGKGTNARERDGAET",binding,[3],binds
same,binding,[4],binds
same,binding,[5],binds
"PIL15-nYFP (protein, UniProt Q0JNI9 1-637) MSDGNDFAELLWENGQAVVHGRKKHPQPAFPPFGFFGGTGGGGGGSSSRAQERQPGGIDAFAKVGGGFGALGMAPAVHDFASGFGATTQDNGDDDTVPWIHYPIIDDEDAAAPAALAAADYGSDFFSELQAAAAAAAAAAPPTDLASLPASNHNGATNNRNAPVATTTTREPSKESHGGLSVPTTRAEPQPQPQLAAAKLPRSSGSGGGEGVMNFSLFSRPAVLARATLESAQRTQGTDNKASNVTASNRVESTVVQTASGPRSAPAFADQRAAAWPPQPKEMPFASTAAAPMAPAVNLHHEMGRDRAGRTMPVHKTEARKAPEATVATSSVCSGNGAGSDELWRQQKRKCQAQAECSASQDDDLDDEPGVLRKSGTRSTKRSRTAEVHNLSERRRRDRINEKMRALQELIPNCNKIDKASMLDEAIEYLKTLQLQVQMMSMGTGLCIPPMLLPTAMQHLQIPPMAHFPHLGMGLGYGMGVFDMSNTGALQMPPMPGAHFPCPMIPGASPQGLGIPGTSTMPMFGVPGQTIPSSASSVPPFASLAGLPVRPSGVPQVSGAMANMVQDQQQGIANQQQQCLNKEAIQGANPGDSQMQIIMQGDNENFRIPSSAQTKSSQFSDGTGKGTNARERDGAET",binding,[6],binds
same,binding,[7],binds

# No constants are given. Whether binding was seen depends on the method and setting. Binding can be weak; no strength is given. For some of these results: Binding seen in cells or lysates may run through a third protein. For some of these results: Tags and fused reporters may be left off the sequences shown.
